Assay: general procedure: Boc solid-phase peptide synthesis; -OCH2-Pam, MBHA, or Trt-protected mercaptopropionyl-Leu (TAMPAL) resin; HBTU, in situ neutralization
Conditions: coupling step

Substance | step yield
SAOD-KEKERPEISLPSDFEHIVGFDA-CTGEFTGMPEQWARLLQT | 70% yield
LY-(SAOD)-AGCEYRIDRVRLFVDKLDNIAQVPRVGAA-HHHHHH | 58% yield
LY-(SAOD)-AGCRANK-NH2 | ˜85% yield

From patent US7351797 (dated 2008)
